No constants are given. Whether binding was seen depends on the method and setting. In cells and extracts the contact can be indirect. Where a sequence is shown, tags or fusion partners need not be part of it. Values belong to the molecule of their own block, whether it stands above or below them.
Tests used:
Flag-Rab5 (Drosophila) = target: T1, Flag-Rab5 (Drosophila) (UniProt Q9V3I2); assay: co-IP; S2 cells co-transfected with the two tagged proteins; lysate (25 mM Tris pH 8, 27.5 mM NaCl, 20 mM KCl, 0.5% Nonidet P40) immunoprecipitated with anti-Myc, anti-Flag or anti-HA overnight at 4°C, protein A/G beads, washed four times with cold PBS; western blot
T1 sequence: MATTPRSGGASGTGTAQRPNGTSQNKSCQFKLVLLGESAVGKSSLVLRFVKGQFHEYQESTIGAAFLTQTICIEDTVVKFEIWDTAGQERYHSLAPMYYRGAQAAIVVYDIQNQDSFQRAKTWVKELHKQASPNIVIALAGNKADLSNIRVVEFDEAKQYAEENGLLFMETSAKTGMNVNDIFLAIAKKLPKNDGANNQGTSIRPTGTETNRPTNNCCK

The chains behind the UniProt entries cited, without tags or fusion partners.
UniProt A1ZAJ2: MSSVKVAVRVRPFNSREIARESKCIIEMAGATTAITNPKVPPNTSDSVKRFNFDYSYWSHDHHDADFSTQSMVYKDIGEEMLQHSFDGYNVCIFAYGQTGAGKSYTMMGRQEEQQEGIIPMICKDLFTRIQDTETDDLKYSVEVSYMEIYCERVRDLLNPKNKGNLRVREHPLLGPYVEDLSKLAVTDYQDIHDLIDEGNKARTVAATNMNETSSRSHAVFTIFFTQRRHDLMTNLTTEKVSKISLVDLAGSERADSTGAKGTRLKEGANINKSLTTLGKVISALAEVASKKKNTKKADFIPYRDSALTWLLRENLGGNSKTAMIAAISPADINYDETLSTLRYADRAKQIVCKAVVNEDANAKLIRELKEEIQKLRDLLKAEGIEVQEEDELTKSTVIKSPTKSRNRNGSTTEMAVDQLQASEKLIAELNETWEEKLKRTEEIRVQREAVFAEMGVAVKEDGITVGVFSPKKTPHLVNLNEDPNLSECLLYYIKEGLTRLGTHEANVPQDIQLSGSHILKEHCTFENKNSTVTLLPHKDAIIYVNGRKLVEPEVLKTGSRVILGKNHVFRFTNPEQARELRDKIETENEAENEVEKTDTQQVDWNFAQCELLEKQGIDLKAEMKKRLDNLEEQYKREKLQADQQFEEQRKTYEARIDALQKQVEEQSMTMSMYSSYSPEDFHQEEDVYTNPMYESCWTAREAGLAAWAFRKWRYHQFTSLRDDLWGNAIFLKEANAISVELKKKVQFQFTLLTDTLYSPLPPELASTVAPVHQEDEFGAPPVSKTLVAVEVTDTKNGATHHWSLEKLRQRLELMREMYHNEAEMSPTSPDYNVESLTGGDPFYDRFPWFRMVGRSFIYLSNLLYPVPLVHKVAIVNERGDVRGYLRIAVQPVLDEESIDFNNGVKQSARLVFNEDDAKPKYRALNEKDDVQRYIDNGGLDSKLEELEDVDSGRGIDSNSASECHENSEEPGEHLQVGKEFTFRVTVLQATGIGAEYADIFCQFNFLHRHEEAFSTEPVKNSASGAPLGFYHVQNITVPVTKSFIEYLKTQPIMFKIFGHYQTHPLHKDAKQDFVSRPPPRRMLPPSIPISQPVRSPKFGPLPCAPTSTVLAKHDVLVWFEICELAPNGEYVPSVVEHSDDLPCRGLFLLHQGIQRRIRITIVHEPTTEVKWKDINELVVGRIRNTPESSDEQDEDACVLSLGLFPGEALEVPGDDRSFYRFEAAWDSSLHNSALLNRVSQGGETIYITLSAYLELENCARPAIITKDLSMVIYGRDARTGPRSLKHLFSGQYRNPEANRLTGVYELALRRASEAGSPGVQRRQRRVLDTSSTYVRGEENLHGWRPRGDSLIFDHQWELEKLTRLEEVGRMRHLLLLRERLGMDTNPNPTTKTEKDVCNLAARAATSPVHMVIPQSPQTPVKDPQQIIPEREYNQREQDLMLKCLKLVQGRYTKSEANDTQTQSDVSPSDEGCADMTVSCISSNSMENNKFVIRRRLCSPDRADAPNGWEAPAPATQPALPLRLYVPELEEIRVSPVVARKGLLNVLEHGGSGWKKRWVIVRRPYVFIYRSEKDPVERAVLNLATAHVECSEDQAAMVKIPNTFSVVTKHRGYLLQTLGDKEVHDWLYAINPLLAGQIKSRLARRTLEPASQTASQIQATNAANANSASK

[1] = target: Imac-HA (immaculate connections / Uncoordinated-104) (Drosophila) (UniProt A1ZAJ2); assay: as above

- binding (Flag-Rab5 (Drosophila)): no binding
Molecule: Imac-HA (immaculate connections / Uncoordinated-104) (from UniProt A1ZAJ2 1-1670)

- binding [1]: no binding
B1: Flag-Rab5 (protein, UniProt Q9V3I2 1-219)
chain: T1 sequence

Reference: publication PMC6126864
